Reference: publication PMC11719499 (International Journal of Molecular Sciences, 2024)

Conditions: class from logPe in PAMPA-BBB

With NS(=O)(=O)c1cc(C(=O)O)c(NCc2ccco2)cc1Cl [Furosemide, furosemide, reference compound] the “Prediction of penetration to the CNS” value was “CNS − (− is not detected in acceptor or logPe < −6.0)”.
